The text below walks through data of patent publication US10188754B2, “Compositions and methods for chemical exchange saturation transfer (CEST) based magnetic resonance imaging (MRI)” (THE JOHNS HOPKINS UNIVERSITY, priority 2013, dated 2019).

Molecules are shown by their SMILES. Marks after values point to notes of the source that are not given here.

One series can be described thus: Screening of beta-hydroxy carboxylate analogs for CEST contrast (Table 4A). The settings on record: Concentration 5 mM.
With `Cc1ccc(Cl)c(Nc2ccccc2C(=O)O)c1Cl` [Entry 51], the “Contrast (%)” value stood at 1%. Consider `Cc1cccc(Nc2ccccc2C(=O)O)c1Cl` [Entry 53], for which the “Contrast (%)” value stood at 0%. On the same count and under the same terms, under `Cc1cccc(Nc2ccccc2C(=O)O)c1C` [Entry 52] stands 0%.

The series is the same for the next values; noted with them: Concentration 10 mM.
Consider `Cc1ccc(S(=O)(=O)Nc2ccccc2C(=O)O)cc1` [Entry 62], for which the “Contrast (%)” value is reported as 6.8%. Regarding `O=[N+]([O-])c1ccccc1O` [Entry 6], the “Contrast (%)” value was 0%.

In the case of `O=C(O)c1ccccc1Nc1ccccc1` [Entry 49], the “Contrast (%)” value was determined as 7.4%. The same measure, in the same setting: with `O=C(O)c1c(O)cccc1O` [Entry 27] the figure was 0.4%; with `COc1cccc(C(=O)O)c1O` [Entry 37], 6.5%; with `Nc1ccc(C(=O)O)c(O)c1` [Entry 22], 6.6%. On to `O=C(O)c1cc(Br)cc(Br)c1O` [Entry 32], for which the “Contrast (%)” value is listed as 9.1%. On the same count and under the same terms, with `O=C(O)c1ccc(O)c(/C=N/CC/N=C/c2cc(C(=O)O)ccc2O)c1` [Entry 11] the figure was 1.7%. The same measure, in the same setting: with `O=C(O)c1ccc2ccccc2c1O` [Entry 34] the figure was 3.4%; with `O=C(O)c1ccc2cccnc2c1O` [Entry 35], 6.4%. The same measure, in the same setting: under `O=Cc1cc(C(=O)O)ccc1O` [Entry 9] stands 0%.

Turning to `O=C(O)c1cc(Cl)cc(Cl)c1O` [Entry 31], the “Contrast (%)” value is on record as 6.7%.

Consider `O=C(O)c1cccc(O)c1O` [Entry 36], for which the “Contrast (%)” value amounted to 5.3%. Still for that read-out and setting: under `O=C(O)c1cc([N+](=O)[O-])ccc1O` [Entry 19] stands 3.1%; under `O=C(O)c1ccccc1O` [Entry 1], 6.8%; under `O=C(O)c1ccccc1Nc1cccc(C(F)(F)F)c1` [Entry 50], 5%. `COC(=O)c1cc([N+](=O)[O-])ccc1O` [Entry 5]: the “Contrast (%)” value turned out to be 0%. Still for that read-out and setting: under `COC(=O)c1ccc(O)c([N+](=O)[O-])c1` [Entry 7] stands 0%; under `O=C(O)c1ccccc1NC(=O)C(F)(F)F` [Entry 57], 3.5%; under `O/N=C/c1ccccc1O` [Entry 10], 0%. Regarding `O=C(O)c1ccc(C(=O)O)c(O)c1` [Entry 23], the “Contrast (%)” value is given as 6.7%. Turning to `O=C(O)CNC(=O)c1ccccc1O` [Entry 3], the “Contrast (%)” value worked out at 0%. On the same count and under the same terms, under `O=C(O)c1c(O)ccc2ccccc12` [Entry 25] stands 3.4%; under `CS(=O)(=O)Nc1ccccc1C(=O)O` [Entry 58], 7.7%; under `O=C(O)c1cc(C(=O)O)c(O)cc1O` [Entry 43], 13.0%.

For the compound `Nc1cccc(C(=O)O)c1O` [Entry 38], the “Contrast (%)” value stood at 6.3%.

In the case of `Cc1cccc(C(=O)O)c1O` [Entry 28], the “Contrast (%)” value was found to be 6.2%.

For `Oc1ccccc1-c1nnn[nH]1` [Entry 13], the “Contrast (%)” value was 0%. Same read-out and setting: under `O=C(O)c1cc2ccccc2c(Cc2c(O)c(C(=O)O)cc3ccccc23)c1O` [Entry 44] stands 5.7%.

`O=C(O)c1cccc(F)c1O` [Entry 30]: the “Contrast (%)” value was determined as 7.4%.

In the case of `COc1cccc(O)c1C(=O)O` [Entry 26], the “Contrast (%)” value is 3.2%. The same measure, in the same setting: under `O=C(O)c1cccnc1Nc1cccc(C(F)(F)F)c1` [Entry 54] stands 0%; under `O=C(O)c1cc(O)ccc1O` [Entry 15], 7.7%; under `COC(=O)c1ccccc1O` [Entry 4], 0%. The same measure, in the same setting: with `O=C(O)c1cc([N+](=O)[O-])cc([N+](=O)[O-])c1O` [Entry 20] the figure was 0%; with `O=C(O)c1cccc([N+](=O)[O-])c1O` [Entry 41], 5.4%; with `CS(=O)(=O)Nc1ccc(N)cc1C(=O)O` [Entry 61], 8.4%. As to `O=C(O)c1cc(O)c(C(=O)O)cc1O` [Entry 42], the “Contrast (%)” value came out at 17.1%.

For the compound `O=C(O)c1ccc(O)cc1O` [Entry 21], the “Contrast (%)” value stood at 7.2%. Still for that read-out and setting: with `O=C(O)c1cc(I)cc(I)c1O` [Entry 33] the figure was 5.3%. Regarding `O=Cc1cccc(C(=O)O)c1O` [Entry 39], the “Contrast (%)” value stood at 7.7%. In the case of `O=C(O)c1cccc(C(=O)O)c1O` [Entry 40], the “Contrast (%)” value turned out to be 3.9%. The same measure, in the same setting: under `O=C(O)c1ccc([N+](=O)[O-])cc1O` [Entry 24] stands 6.7%; under `O=C(O)c1cc(Cl)ccc1O` [Entry 17], 6.2%; under `[O-][n+]1cccc2cccc(O)c21` [Entry 8], 0.7%.

Staying with this series, now noted: Concentration 25 mM.
For the compound `O=C(O)c1ccc(-c2ccc(F)cc2F)cc1O` [Entry 45], the “Contrast (%)” value is recorded as 19.0%.

As for `O=C(O)c1ccccc1NS(=O)(=O)C(F)(F)F` [Entry 63], the “Contrast (%)” value came out at 0%. Same read-out and setting: with `CNc1ccccc1C(=O)O` [Entry 48] the figure was 0%. Turning to `Cc1ccc(NS(C)(=O)=O)c(C(=O)O)c1` [Entry 60], the “Contrast (%)” value was found to be 15%. Turning to `Nc1ccccc1C(=O)O` [Entry 47], the “Contrast (%)” value was 0%. On the same count and under the same terms, with `O=C(O)c1ccccc1N/N=C\c1ccccc1` [Entry 64] the figure was 0%; with `CS(=O)(=O)Nc1ccc(Cl)cc1C(=O)O` [Entry 59], 20%; with `CC(=O)Nc1ccccc1C(=O)O` [Entry 55], 0%. Still for that read-out and setting: with `O=C(O)c1cc(/N=N\c2ccc(S(=O)(=O)Nc3ccccn3)cc2)ccc1O` [Entry 46] the figure was 20%; with `CC(C)(C)OC(=O)Nc1ccccc1C(=O)O` [Entry 56], 0%.

Assay in another series: not given
The class given is physicochemical. The conditions noted are these: Table 2; 10 mM, pH 7.3-7.4, tsat = 3 sec, ω1 = 3.6 μT, 37° C.
For the compound `O=C(O)c1ccc(O)cc1O` [Compound 16], the “Contrast (%)” value turned out to be 7.2%.

In the case of `Nc1ccc(C(=O)O)c(O)c1` [Compound 17], the “Contrast (%)” value stood at 6.6%.

Turning to `O=C(O)c1cc([N+](=O)[O-])ccc1O` [Compound 14, 5-nitrosalicylic acid], the “Contrast (%)” value is 3.1%. On the same count and under the same terms, with `O=C(O)c1ccc(C(=O)O)c(O)c1` [Compound 18] the figure was 6.7%. On the same count and under the same terms, with `O=C(O)c1ccc([N+](=O)[O-])cc1O` [Compound 19, 2-hydroxy-4-nitrobenzoic acid] the figure was 6.7%.

The series is the same for the next values; noted with them: Table 3; 10 mM, pH 7.3-7.4, tsat = 3 sec, ω1 = 3.6 μT, 37° C.
`O=C(O)c1c(O)cccc1O` [Compound 22, 2,6-dihydroxybenzoic acid]: the “Contrast (%)” value is given as 0.4%. On the same count and under the same terms, under `COc1cccc(O)c1C(=O)O` [Compound 21, 6-methoxysalicylic acid] stands 3.2%; under `O=C(O)c1c(O)ccc2ccccc12` [Compound 20, 2-hydroxy-l-naphthoic acid], 3.4%.

The same series, now with this note: Table 4; 10 mM, pH 7.3-7.4, tsat = 3 sec, ω1 = 3.6 μT, 37° C.
Consider `O=C(O)c1cccc(F)c1O` [Compound 25], for which the “Contrast (%)” value is on record as 7.4^ %. Same read-out and setting: with `O=C(O)c1ccc2ccccc2c1O` [Compound 29, 1-Hydroxy-2-naphthoic acid] the figure was 3.4^ %; with `O=C(O)c1ccc2cccnc2c1O` [Compound 30, 8-hydroxy-7-quinolinecarboxylic acid], 6.4^ %; with `Nc1cccc(C(=O)O)c1O` [Compound 33, 3-aminosalicylic acid], 6.3^ %. `O=C(O)c1cc(Cl)cc(Cl)c1O` [Compound 26]: the “Contrast (%)” value is on record as 6.7^ %.

In the case of `Cc1cccc(C(=O)O)c1O` [Compound 23, 3-Methylsalicylic acid], the “Contrast (%)” value is listed as 6.2^ %. Same read-out and setting: under `O=C(O)c1cccc([N+](=O)[O-])c1O` [Compound 36, 3-nitrosalicylic acid] stands 5.4^ %; under `O=C(O)c1cc(I)cc(I)c1O` [Compound 28], 5.3^ %.

As to `COc1cccc(C(=O)O)c1O` [Compound 32, 3-methoxysalicylic acid], the “Contrast (%)” value is on record as 6.5^ %.

Turning to `O=C(O)c1cc(Br)cc(Br)c1O` [Compound 27, 3,5-Dibromosalicylic acid], the “Contrast (%)” value was 9.1^ %. The same measure, in the same setting: under `O=C(O)c1cccc(O)c1O` [Compound 31, 2,3-dihydroxybenzoic acid] stands 5.3^ %; under `O=C(O)c1cccc(C(=O)O)c1O` [Compound 35, 2-hydroxyisophthalic acid], 3.9^ %. On the same count and under the same terms, under `O=Cc1cccc(C(=O)O)c1O` [Compound 34, 3-Formylsalicylic acid] stands 7.7^ %.

The series is the same for the next values; noted with them: Table 4; 20 mM was used because of the low contrast; pH 7.3-7.4, tsat = 3 sec, ω1 = 3.6 μT, 37° C.
On to `CC(C)(C)c1cc(C(=O)O)c(O)c(C(C)(C)C)c1` [Compound 24, 3,5-di-tert-butylsalicylic acid], for which the “Contrast (%)” value is 1.5^a %.

The series is the same for the next values; noted with them: Table 5; 10 mM, pH 7.3-7.4, tsat = 3 sec, ω1 = 3.6 μT, 37° C.
Consider `O=C(O)c1ccccc1NC(=O)C(F)(F)F` [Compound 41], for which the “Contrast (%)” value was 3.5%. For the compound `O=C(O)c1ccccc1Nc1ccccc1` [Compound 37], the “Contrast (%)” value turned out to be 7.4%.

As to `Cc1ccc(S(=O)(=O)Nc2ccccc2C(=O)O)cc1` [Compound 40], the “Contrast (%)” value is 6.8%. On the same count and under the same terms, with `CS(=O)(=O)Nc1ccccc1C(=O)O` [Compound 39] the figure was 7.7%; with `CS(=O)(=O)Nc1ccc(N)cc1C(=O)O` [Compound 38], 8.4%.

Staying with this series, now noted: Table 6; 10 mM, pH 7.3-7.4, tsat = 3 sec, ω1 = 3.6 μT, 37° C.
Turning to `O=C(O)c1cc2ccccc2c(Cc2c(O)c(C(=O)O)cc3ccccc23)c1O` [Compound 44, Pamoic acid], the “Contrast (% at 3.6 uT)” value worked out at 5.7%. On the same count and under the same terms, under `O=C(O)c1cc(C(=O)O)c(O)cc1O` [Compound 43, 4,6-dihydroxyisophthalic acid] stands 13.0%.
